Laboratory results published in US11957127B1, “1,3-bis(naphthalen-2-yloxy)propan-2-one as an eco-friendly insecticidal agent against Spodoptera littoralis (boisd.)” (priority 2023, dated 2024).

Test system: Spodoptera littoralis
Experiment: Insecticidal bioassay screening (castor leaf dip, larval mortality)
Assay type: in vivo
Settings: 72 h, slope of regression (LDP) line
Method: Five concentrations (200, 100, 50, 25, 12.5 ppm) were designed for this synthetic compound and the reference fenoxycarb compound as the dynamic ingredients based on ppm via diluting the commercial formulation.
In this experiment, castor leaves are immersed in each of the previously prepared concentrations of the components for 10 seconds and then left to dry for 60 minutes. Larvae of the second and fourth instars of each checked strain are prepared with treated leaves in gauze-covered glass containers for 72 hrs. An untreated control is made in which leaves are dipped in triton x-100 and distilled water only. Then the preserved leaves were removed & fresh, untreated leaves were provided for 72 hours. Three replicates (10 larvae each) were checked for each concentration. Daily inspection was carried out for all treatments and mortality percentages were recorded 3 days (72 hours) after treatment. The average mortality percentage was corrected employing Abbott's formula. The corrected mortality rate for each of the previously synthesized compounds is statistically calculated according to Finney (1970). Through this rate, the corresponding concentration test lines (LDP lines) are assessed. Fifty and ninety percent mortality are determined, and the regression values for the checked products were previously evaluated.

## O=C(COc1ccc2ccccc2c1)COc1ccc2ccccc2c1 [Compound 4, 1,3-bis(naphthalen-2-yloxy)propan-2-one]
2nd instar larvae of S. littoralis
  slope ± SE: 0.256 ± 0.082
4th instar larvae of S. littoralis
  slope ± SE: 0.231 ± 0.0823
